{
  "source": "PubChem BioAssay AID540276",
  "about": "(National Center for Advancing Translational Sciences (NCATS), 2011)",
  "note": "About 5,400 (1.8%) of roughly 300,000 compounds were called active. This list was built around the results that the source calls inconclusive (neither active nor inactive); the mix of calls is not that of the screen. Calls come from the whole dose curve; tested in HEK293 cells. Potencies beside an inconclusive call are fits to weak or partial responses and may not hold up. Potency is the fitted concentration of half-maximal effect.",
  "data": [
    {"experiment": "qHTS for inhibitors of binding or entry into cells for Marburg Virus", "conditions": "Marburg virus pseudotyped entry inhibition, cell reporter; series mostly up to 37.8 µM", "values": [
      {"smiles": "N#C/C(=C\\c1cccs1)C(=O)Nc1ccccn1", "Potency": "inconclusive: 4.47 µM [activator, full curve]"},
      {"smiles": "Cc1cc(C(=O)N/N=C/c2ccc(Cl)c([N+](=O)[O-])c2)c(C)n1-c1ccc(F)cc1", "Potency": "inconclusive: 1.12 µM [inhibitor, partial curve, poor fit]"},
      {"smiles": "COc1cc(NC(=O)c2ccc3snnc3c2)cc(OC)c1", "Potency": "inactive"},
      {"smiles": "CCOc1cc(CNc2ccc3cn[nH]c3c2)ccc1OC", "Potency": "inconclusive: 20 µM [inhibitor, single point]"},
      {"smiles": "COc1ccc(Nc2nnc(-c3ccc(C)cc3)c3ccccc23)cc1C(=O)N1CCCCC1", "Potency": "inconclusive: 35.5 µM [inhibitor, single point]"},
      {"smiles": "CC1CCc2c(sc3nc(CSc4n[nH]c(N)n4)[nH]c(=O)c23)C1", "note": "(configuration not stated)", "Potency": "inactive"},
      {"smiles": "Cc1cccc(CSCc2ccc(C(=O)NC3CCCC3)o2)c1", "Potency": "inconclusive: 5.62 µM [activator, single point]"},
      {"smiles": "CCOc1ccc(CCNC(=O)C(CC)n2nc(C)n3c(cc4sccc43)c2=O)cc1OCC", "note": "(configuration not stated)", "Potency": "inconclusive: 20.6 µM [inhibitor, single point]"},
      {"smiles": "O=C(NCCC1=CCCCC1)c1ccc(Cl)c(S(=O)(=O)Nc2ccccc2)c1", "Potency": "inconclusive: 32.6 µM [inhibitor, partial curve, poor fit]"},
      {"smiles": "CCC(=O)N1CCc2cc(Br)c(S(=O)(=O)CCC(=O)NCCc3ccccc3)cc21", "Potency": "inactive"},
      {"smiles": "Cc1ccccc1Cn1cc(NC(=O)COc2ccccc2)cn1", "Potency": "inconclusive: 35.5 µM [inhibitor, single point]"},
      {"smiles": "Cc1cccc(C)c1NC(=O)C(NS(=O)(=O)c1cccs1)c1ccccc1", "note": "(configuration not stated)", "Potency": "inconclusive: 11.2 µM [inhibitor, single point]"},
      {"smiles": "O=C1NC(=Nc2ccccc2Cl)S/C1=C\\c1cccc([N+](=O)[O-])c1O", "Potency": "inconclusive: 35.5 µM [inhibitor, single point]"},
      {"smiles": "O=C1C=C(c2c(O)ccc3ccccc23)c2ccccc2C1=O", "Potency": "inconclusive: 2.82 µM [inhibitor, partial curve, poor fit]"},
      {"smiles": "CN(CC(=O)Nc1ccncc1)S(=O)(=O)c1ccc(Br)cc1", "Potency": "inconclusive: 0.58 µM [inhibitor, full curve, poor fit]"},
      {"smiles": "Cn1c(-c2ccc3c(c2)OCO3)cnc1N", "Potency": "inactive"},
      {"smiles": "O=C(CSc1nnc(-c2cccs2)o1)Oc1ccccc1Cl", "Potency": "inconclusive: 5.62 µM [inhibitor, single point]"},
      {"smiles": "Cc1ccc(NC(=O)NNC(=O)C2CC(c3cccs3)=NO2)cc1", "note": "(configuration not stated)", "Potency": "inactive"},
      {"smiles": "Cc1occc1C(=O)Nc1cnn(CCCC(=O)O)c1", "Potency": "inactive"},
      {"smiles": "COc1cc(NS(=O)(=O)c2cn(C)cn2)cc(OC)c1OC", "Potency": "inactive"},
      {"smiles": "COC(=O)c1c(C)[nH]c(C(C)=O)c1C", "Potency": "inconclusive: 1.26 µM [inhibitor, single point]"},
      {"smiles": "Cc1cccc(NC2=NC(C)(C)N=C(N)N2)c1", "Potency": "inconclusive: 2.51 µM [inhibitor, full curve, poor fit]"},
      {"smiles": "CCc1ccccc1OCC(=O)Nc1nc(-c2cccnc2)cs1", "Potency": "inconclusive: 5.01 µM [inhibitor, partial curve, poor fit]"},
      {"smiles": "c1ccc(-c2cc(N3CCOCC3)nc3ccccc23)cc1", "Potency": "inconclusive: 29.1 µM [inhibitor, single point]"},
      {"smiles": "CC(=O)Oc1ccc(C(=O)[C@H]2[C@H]3C(=O)N(c4ccc5ccccc5c4)C(=O)[C@H]3[C@@H]3C=CC=NN32)cc1", "Potency": "inactive"},
      {"smiles": "Cc1ccccc1C(=O)Nc1ccc2nc(N3CCCCC3)cc(C)c2c1", "Potency": "inconclusive: 12.6 µM [activator, single point]"},
      {"smiles": "COC(=O)Oc1ccc(/C=C/C(=O)OC(C)C)cc1OC(=O)OC", "Potency": "inconclusive: 20 µM [inhibitor, single point]"},
      {"smiles": "O=C1C=C(Nc2cccc3cccnc23)c2ccccc2C1=O", "Potency": "inconclusive: 35.5 µM [inhibitor, single point]"},
      {"smiles": "Cc1onc(-c2ccccc2)c1C(=O)NC(C)CCc1ccccc1", "note": "(configuration not stated)", "Potency": "inconclusive: 35.5 µM [inhibitor, single point]"},
      {"smiles": "Cc1ccc(C(C(=O)NC2CCCCC2)N(Cc2ccco2)C(=O)Cc2c[nH]c3ccccc23)o1", "note": "(configuration not stated)", "Potency": "inconclusive: 1.3 µM [inhibitor, full curve, poor fit]"},
      {"smiles": "CC(=O)Nc1ccc(NC(=O)c2ccccc2F)cc1", "Potency": "inconclusive: 29.1 µM [activator, single point]"},
      {"smiles": "CCN1/C(=C\\C=C(C(C)=O)C(C)=O)Sc2ccccc21", "Potency": "inactive"},
      {"smiles": "CCCS(=O)(=O)c1c(S(=O)(=O)CCC)c2cc(C(C)(C)C)ccn2c1C(=O)c1ccccc1", "Potency": "inconclusive: 35.5 µM [inhibitor, single point]"},
      {"smiles": "COc1ccc(N(Cc2cccs2)C(=O)c2ccc(OC)c(Cl)c2)cc1", "Potency": "inconclusive: 35.5 µM [inhibitor, single point]"},
      {"smiles": "Cc1ccc(NC(=O)c2cc3ccccc3o2)nc1", "Potency": "inconclusive: 7.08 µM [inhibitor, partial curve, poor fit]"},
      {"smiles": "COc1cccc(CNc2ncc(-c3ccccc3)n2C)c1", "Potency": "inconclusive: 20 µM [inhibitor, single point]"},
      {"smiles": "Cc1ccc(Cl)cc1NC(=S)N(CCCN1CCN(C)CC1)Cc1ccco1", "Potency": "inconclusive: 35.5 µM [inhibitor, single point]"},
      {"smiles": "C/C(=N\\NC(=O)c1nonc1N)c1cccs1", "Potency": "inconclusive: 12.6 µM [activator, single point]"},
      {"smiles": "O=C(Cc1cccs1)N1CCN=C1SCc1ccc(Br)cc1", "Potency": "inconclusive: 15.8 µM [inhibitor, single point]"},
      {"smiles": "Cc1cc(C)c2cc(CN(CCO)C(=O)Nc3ccc(Cl)cc3)c(=O)[nH]c2c1", "Potency": "active: 11.2 µM"},
      {"smiles": "COc1ccc(N(CC(=O)NCc2ccccc2C)S(=O)(=O)c2ccccc2[N+](=O)[O-])c(OC)c1", "Potency": "inconclusive: 2 µM [inhibitor, single point]"},
      {"smiles": "COc1cccc(Nc2nnc(SCc3nc4ccccc4s3)s2)c1", "Potency": "inactive"},
      {"smiles": "CC1(C)Cc2c(sc(NC(=O)COc3ccccc3)c2C#N)C(C)(C)N1", "Potency": "inactive"},
      {"smiles": "CCN(CC(=O)NC1CCS(=O)(=O)C1)S(=O)(=O)c1ccc2ccccc2c1", "note": "(configuration not stated)", "Potency": "inconclusive: 3.16 µM [inhibitor, partial curve, poor fit]"},
      {"smiles": "CSc1ccccc1OCc1cc(C(=O)N(C)CC2COCCO2)no1", "note": "(configuration not stated)", "Potency": "inactive"},
      {"smiles": "Cc1ccc(C)c2nc3sc(C(=O)O)cc3cc12", "Potency": "inconclusive: 28.2 µM [activator, partial curve, poor fit]"},
      {"smiles": "COc1cccc(NC(=S)N(CCN2CCCCC2)Cc2ccco2)c1", "Potency": "inconclusive: 2.82 µM [inhibitor, partial curve, poor fit]"},
      {"smiles": "CCN(CC(=O)NCc1ccc(Cl)cc1)C(=O)CN1C(=O)NC(C)(c2ccccc2)C1=O", "note": "(configuration not stated)", "Potency": "inconclusive: 3.16 µM [inhibitor, single point]"},
      {"smiles": "Cc1sc2nc(C3CC3)nc(N3CCN(S(=O)(=O)c4ccc(F)cc4)CC3)c2c1C", "Potency": "inconclusive: 8.2 µM [inhibitor, partial curve]"},
      {"smiles": "O=C(CNC(=O)c1ccccc1F)OCc1nc2ccccc2s1", "Potency": "inconclusive: 8.91 µM [activator, partial curve, poor fit]"},
      {"smiles": "O=C1N=C2C=CC=CC2N1C1CCN(CCCC(c2ccc(F)cc2)c2ccc(F)cc2)CC1", "note": "(configuration not stated)", "Potency": "inactive"},
      {"smiles": "COc1ccc(N2CCN(C(=O)c3ccc(COc4ccc([N+](=O)[O-])cc4)o3)CC2)cc1", "Potency": "inconclusive: 35.5 µM [inhibitor, single point]"},
      {"smiles": "COc1ccccc1P(=O)(Cc1ccccc1)c1ccccc1", "note": "(configuration not stated)", "Potency": "inconclusive: 17.8 µM [inhibitor, single point]"},
      {"smiles": "CC(=O)[C@@H]1[C@@H](C)N(Cc2ccccc2)C(=O)N[C@H]1c1cccc(C(F)(F)F)c1", "Potency": "inconclusive: 1.5 µM [inhibitor, single point]"},
      {"smiles": "Cc1noc(/C=C/c2ccccn2)c1[N+](=O)[O-]", "Potency": "inconclusive: 22.4 µM [inhibitor, single point]"},
      {"smiles": "Cc1ccc(SCC(=O)OCC(=O)NC(C)c2ccc(Br)cc2)cc1", "note": "(configuration not stated)", "Potency": "inconclusive: 8.91 µM [activator, partial curve, poor fit]"},
      {"smiles": "O=C(Oc1ccccc1F)c1nc(SCc2ccc(F)cc2)ncc1Cl", "Potency": "inactive"},
      {"smiles": "CC(=O)N1c2ccc(S(=O)(=O)NCCC(=O)Nc3ncccc3C)cc2CC1C", "note": "(configuration not stated)", "Potency": "inactive"},
      {"smiles": "COC1=C(C)C(=O)C2=C(C1=O)C(CO)N1C(C#N)C3CC4C(C1C2N1CCOC41)N3C", "note": "(configuration not stated)", "Potency": "inconclusive: 0.224 µM [inhibitor, full curve, poor fit]"},
      {"smiles": "Fc1cccc(Cn2cc(C(=S)N3CCCCC3)c3ccccc32)c1", "Potency": "inconclusive: 10 µM [inhibitor, partial curve, poor fit]"},
      {"smiles": "CC(C)n1ncc2c(C(=O)NCCOc3ccccc3F)cc(C3CC3)nc21", "Potency": "inconclusive: 5.01 µM [activator, single point]"},
      {"smiles": "Cc1ccc(-c2cc3nc(-c4ccccc4)cc(C(F)(F)F)n3n2)cc1", "Potency": "inactive"},
      {"smiles": "c1ccc(COc2ccc(CNCc3cccs3)cc2)cc1", "Potency": "inconclusive: 29.1 µM [inhibitor, single point]"},
      {"smiles": "COc1ccc(C)cc1NC(=O)C(Sc1nnc2ccccn12)c1ccccc1", "note": "(configuration not stated)", "Potency": "inconclusive: 1.26 µM [inhibitor, single point]"},
      {"smiles": "CCCCSCCCNC(=O)CCCN1C(=O)c2ccccc2Sc2ncccc21", "Potency": "inconclusive: 11.2 µM [inhibitor, partial curve, poor fit]"},
      {"smiles": "CC(C)CC(NC(=O)C1CCC(C)CC1)C(=O)NCc1cccnc1", "note": "(configuration not stated)", "Potency": "inactive"},
      {"smiles": "CCCOc1ccc(/C=N/Nc2cccc([N+](=O)[O-])c2)c(O)c1", "Potency": "inconclusive: 29.1 µM [inhibitor, single point]"}
    ]}
  ]
}
